Measured values taken from publication PMC6557205, “Functional interplay between YY1 and CARM1 promotes oral carcinogenesis”.
No constants are given. Whether binding was seen depends on the method and setting. Binding seen in cells or lysates may run through a third protein. Some entries that bind do so weakly or less than the wild type. Sequences can lack the tags named with a protein.

Chains of the proteins cited; added tags and fusions are not shown.
UniProt P25490: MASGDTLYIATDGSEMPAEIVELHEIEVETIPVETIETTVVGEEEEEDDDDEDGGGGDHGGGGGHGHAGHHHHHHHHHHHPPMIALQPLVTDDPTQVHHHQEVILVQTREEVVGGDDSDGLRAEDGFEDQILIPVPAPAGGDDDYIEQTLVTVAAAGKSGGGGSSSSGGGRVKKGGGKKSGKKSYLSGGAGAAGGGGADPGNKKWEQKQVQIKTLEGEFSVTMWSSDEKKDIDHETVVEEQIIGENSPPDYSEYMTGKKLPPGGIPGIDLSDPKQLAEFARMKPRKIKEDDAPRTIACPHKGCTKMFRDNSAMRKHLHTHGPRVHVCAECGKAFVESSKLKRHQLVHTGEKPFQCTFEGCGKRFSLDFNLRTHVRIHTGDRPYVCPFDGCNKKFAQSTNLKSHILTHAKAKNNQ

Target: T1, FLAG-CARM1 (UniProt Q86X55)
T1 sequence: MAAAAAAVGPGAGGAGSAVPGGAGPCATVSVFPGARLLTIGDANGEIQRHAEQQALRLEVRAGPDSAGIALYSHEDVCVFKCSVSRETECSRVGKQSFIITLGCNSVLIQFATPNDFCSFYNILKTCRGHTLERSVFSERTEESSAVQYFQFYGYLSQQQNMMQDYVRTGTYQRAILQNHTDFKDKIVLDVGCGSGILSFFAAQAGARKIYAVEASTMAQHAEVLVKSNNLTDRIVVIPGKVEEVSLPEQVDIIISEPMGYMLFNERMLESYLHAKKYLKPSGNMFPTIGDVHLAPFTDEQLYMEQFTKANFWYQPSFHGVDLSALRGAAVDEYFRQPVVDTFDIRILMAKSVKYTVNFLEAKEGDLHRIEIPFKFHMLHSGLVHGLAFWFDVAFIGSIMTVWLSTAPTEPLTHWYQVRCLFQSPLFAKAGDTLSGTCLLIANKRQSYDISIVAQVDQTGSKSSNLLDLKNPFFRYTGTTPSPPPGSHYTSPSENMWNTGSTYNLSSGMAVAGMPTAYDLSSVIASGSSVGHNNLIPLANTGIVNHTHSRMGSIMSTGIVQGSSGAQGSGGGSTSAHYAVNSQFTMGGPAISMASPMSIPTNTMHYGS
Assay: co-IP; HEK293T cells co-transfected with pcDNA3-HA-YY1 and pCMV-FLAG-CARM1; lysate (50 mM Tris-Cl pH 7.4, 150 mM NaCl, 1 mM EDTA, 1% Triton-X 100) incubated with M2 agarose beads 6 h at 4 C; eluted with FLAG peptide; immunoblot with HA and FLAG tag-specific antibodies

With HA-YY1 (from UniProt P25490 1-414) the binding was “binds”.
